Data from US20020119154A1 (University of Pennsylvania, published 2002).
These are yes or no findings as the source states them, for the method shown. In cells and extracts the contact can be indirect. Some results given as binding are weak or reduced against the parent protein; the word gives no strength.

Sequences of proteins named here, by UniProt entry; tags and fusion partners are left off. Residues count along the entry.
UniProt P16471, residues 25-234: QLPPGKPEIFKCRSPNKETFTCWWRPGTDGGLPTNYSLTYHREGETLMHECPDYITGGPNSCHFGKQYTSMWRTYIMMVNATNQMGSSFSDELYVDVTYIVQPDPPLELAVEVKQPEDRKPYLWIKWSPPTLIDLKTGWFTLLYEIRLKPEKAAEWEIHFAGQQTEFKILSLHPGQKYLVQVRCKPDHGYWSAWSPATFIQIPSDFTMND

Columns and labels:
[1] = biological target: T1, human prolactin (hPRL) (human, UniProt P01236 29-227); test: co-immunoprecipitation from human serum
T1 sequence (looked up): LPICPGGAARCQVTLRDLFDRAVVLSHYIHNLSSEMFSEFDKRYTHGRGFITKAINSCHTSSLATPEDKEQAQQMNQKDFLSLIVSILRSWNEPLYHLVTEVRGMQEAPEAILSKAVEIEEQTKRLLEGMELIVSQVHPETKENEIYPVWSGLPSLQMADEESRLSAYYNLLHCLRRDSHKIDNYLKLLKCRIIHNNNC

[2] = biological target: T1, human prolactin (hPRL); test: co-immunoprecipitation from human serum, figure legend
[3] = biological target: T1, human prolactin (hPRL); test: co-immunoprecipitation from human serum (anti-PRL IP, anti-PRLR mAb blot)
[4] = biological target: T1, human prolactin (hPRL); test: co-immunoprecipitation from pre-cleared human serum: IP α-PRL with IB α-PRLR (A), IP α-PRLR with IB α-PRL (C) [C]

- binding [1]: binds
- binding [2]: binds
- binding [3]: binds
- binding [4]: binds
Substance: human prolactin-binding protein (hPRLBP) from human serum (from UniProt P16471 25-234) (receptor)
